PubChem BioAssay AID1259424 – University of Nebraska Medical Center | 2018
Here is an unselected part of about 14,000 reagents. 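Higher correlation or smaller distance means closer resemblance to KSR1 loss; control wells, including KSR1 knockdowns, recur on many plates.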 No sequences are given here. Not given: the time to read-out.

- Purpose: 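Seek colon cancer survival genes behaving like KSR1, using a six-gene signature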 (primary screen)
- Cell system: human HCT116 colon cancer cells
- Knock-down reagent: siRNA pool against human genes, 50 nM
- Measured: 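Six signature mRNAs by branched-DNA multiplex assay, scaled to two housekeeping genes and non-targeting median, log2; matched to mean KSR1 knockdown profile by Pearson correlation and euclidean distance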
- Scale: mean correlation with KSR1 profile and KSR1 correlation: higher = expression change more like KSR1 knockdown; mean distance from KSR1 profile: higher = expression change less like KSR1 knockdown

no.	gene knocked down	PubChem SID	mean correlation with KSR1 profile	mean distance from KSR1 profile	KSR1 correlation, replicate 1	KSR1 correlation, replicate 2	KSR1 correlation, replicate 3
1	MED24 (mediator complex subunit 24)	SID363999125	0.37	3.09	0.441	0.443	0.143
2	PLEKHA4 (pleckstrin homology domain containing A4)	SID364001892	0.341	3.54	0.261	0.29	0.418
3	DOLK (dolichol kinase)	SID363999189	-0.144	2.91	0.0416	-0.17	-0.272
4	OGFOD2	SID364002923	0.587	1.15	0.577	0.631	0.571
5	PSMD3 (proteasome 26S subunit, non-ATPase 3)	SID363993966	-0.597	3.13	-0.369	-0.651	-0.766
6	CAMK2N1 (calcium/calmodulin dependent protein kinase II inhibitor 1)	SID364001134	0.381	2.5	0.371	0.465	0.629
7	CYLC1 (cylicin 1)	SID364005275	0.0245	4.55	0.072	0.118	-0.153
8	PCM1 (pericentriolar material 1)	SID363997023	-0.0414	2.42	-0.0939	-0.0281	-0.0871
9	CCL19 (C-C motif chemokine ligand 19)	SID363997096	0.28	1.25	0.506	0.0201	0.342
10	PRDM14 (PR/SET domain 14)	SID364002828	0.672	2.27	0.395	0.707	0.706
11	TUBA4B (tubulin alpha 4b)	SID364003209	0.321	1.96	0.344	0.18	0.0801
12	BCL11A (BCL11 transcription factor A)	SID364000708	0.361	2.25	0.345	0.321	-0.0089
13	SELENOO (selenoprotein O)	SID364003637	0.287	2.22	0.193	0.248	0.277
14	PDZK1IP1 (PDZK1 interacting protein 1)	SID363996645	-0.199	1.65	-0.469	-0.0325	-0.0184
15	FBF1 (Fas binding factor 1)	SID364005427	0.148	3.7	0.0495	-0.163	0.0968
16	SMURF2 (SMAD specific E3 ubiquitin protein ligase 2)	SID364002515	-0.527	1.77	-0.753	-0.246	-0.657
17	MAP2K4 (mitogen-activated protein kinase kinase 4)	SID363994160	0.659	1.21	0.763	0.71	0.442
18	IGFBP5 (insulin like growth factor binding protein 5)	SID363991917	0.708	0.938	0.753	0.538	0.457
19	TERF1 (telomeric repeat binding factor 1)	SID363994347	-0.223	1.94	-0.253	-0.52	-0.246
20	ATP5PD (ATP synthase peripheral stalk subunit d)	SID363997172	-0.154	2.38	-0.145	-0.349	-0.000367
21	PANK4 (pantothenate kinase 4 (inactive))	SID364000884	0.656	2.18	0.667	0.716	0.58
22	MTMR1 (myotubularin related protein 1)	SID363994890	0.327	1.33	0.107	0.128	0.664
23	FOXP2 (forkhead box P2)	SID363998902	0.531	1.27	0.239	0.688	0.484
24	THPO (thrombopoietin)	SID363991791	-0.564	3.89	-0.536	-0.474	-0.779
25	HMGB2 (high mobility group box 2)	SID363993335	-0.578	2.34	-0.761	-0.723	-0.541
26	KLRF1 (killer cell lectin like receptor F1)	SID364000168	0.566	1.04	0.365	0.694	0.513
27	TGOLN2 (trans-golgi network protein 2)	SID363997272	0.0297	1.84	0.0439	-0.11	0.141
28	UGT1A8 (UDP glucuronosyltransferase family 1 member A8)	SID364001382	0.273	1.89	0.352	0.212	0.202
29	KANSL3 (KAT8 regulatory NSL complex subunit 3)	SID364000692	-0.764	3.08	-0.669	-0.676	-0.605
30	RPP40 (ribonuclease P/MRP subunit p40)	SID363997426	-0.598	1.74	-0.311	-0.69	-0.269
31	PALM (paralemmin)	SID363993748	0.509	0.695	0.6	0.844	0.152
32	TSPEAR (thrombospondin type laminin G domain and EAR repeats)	SID364004632	-0.412	6.93	-0.22	-0.0263	-0.084
33	PPIE (peptidylprolyl isomerase E)	SID363996953	-0.426	2.87	-0.342	-0.54	-0.334
34	ANKZF1 (ankyrin repeat and zinc finger peptidyl tRNA hydrolase 1)	SID364000771	-0.265	3.58	-0.114	-0.324	-0.285
35	H2AZ1 (H2A.Z variant histone 1)	SID363993312	0.558	1.7	0.543	0.443	0.709
36	SP2 (Sp2 transcription factor)	SID363994251	-0.608	5.41	-0.67	-0.605	-0.542
37	CCDC15 (coiled-coil domain containing 15)	SID364003205	0.126	2.01	0.0206	0.0387	0.0151
38	TM9SF1 (transmembrane 9 superfamily member 1)	SID363997216	-0.0307	1.91	-0.088	0.0725	-0.0934
39	TMEM254 (transmembrane protein 254)	SID364003259	0.2	2.24	-0.149	0.283	0.161
40	POLR1G (RNA polymerase I subunit G)	SID363998048	-0.376	2.44	-0.07	-0.416	-0.49
41	FLG (filaggrin)	SID364005203	-0.262	3.17	-0.0579	-0.458	-0.23
42	KLC1 (kinesin light chain 1)	SID363996452	-0.211	2.47	-0.192	-0.273	-0.183
43	MLF1 (myeloid leukemia factor 1)	SID364002432	0.509	1.7	0.423	0.373	0.547
44	PMM2 (phosphomannomutase 2)	SID363991635	0.435	1.37	0.403	0.464	0.373
45	ITGA11 (integrin subunit alpha 11)	SID363998143	-0.191	2.9	-0.247	-0.131	-0.38
46	KRT13 (keratin 13)	SID363993472	-0.266	2.36	-0.276	-0.475	0.0607
47	CEP350 (centrosomal protein 350)	SID363999121	-0.486	2.08	-0.265	-0.725	-0.313
48	CTF1 (cardiotrophin 1)	SID363992610	-0.123	0.94	0.813	-0.683	-0.351
49	RNASEH2B (ribonuclease H2 subunit B)	SID364002876	0.408	1.59	0.518	0.502	0.368
50	ST7 (suppression of tumorigenicity 7)	SID364001051	0.312	2.47	0.208	0.395	0.342
